Patent publication US8735601B2, “Pentamethine cyanine fluorescent dye with N-substituting at β-position of conjugated chain” (Dalian University of Technology, priority 2010, dated 2014)
Some results were stated once for a whole list of compounds, not compound by compound.

By UniProt entry, the sequences of proteins in these tests, tags left out. Residues count along the entry.
UniProt P02769, 25-607: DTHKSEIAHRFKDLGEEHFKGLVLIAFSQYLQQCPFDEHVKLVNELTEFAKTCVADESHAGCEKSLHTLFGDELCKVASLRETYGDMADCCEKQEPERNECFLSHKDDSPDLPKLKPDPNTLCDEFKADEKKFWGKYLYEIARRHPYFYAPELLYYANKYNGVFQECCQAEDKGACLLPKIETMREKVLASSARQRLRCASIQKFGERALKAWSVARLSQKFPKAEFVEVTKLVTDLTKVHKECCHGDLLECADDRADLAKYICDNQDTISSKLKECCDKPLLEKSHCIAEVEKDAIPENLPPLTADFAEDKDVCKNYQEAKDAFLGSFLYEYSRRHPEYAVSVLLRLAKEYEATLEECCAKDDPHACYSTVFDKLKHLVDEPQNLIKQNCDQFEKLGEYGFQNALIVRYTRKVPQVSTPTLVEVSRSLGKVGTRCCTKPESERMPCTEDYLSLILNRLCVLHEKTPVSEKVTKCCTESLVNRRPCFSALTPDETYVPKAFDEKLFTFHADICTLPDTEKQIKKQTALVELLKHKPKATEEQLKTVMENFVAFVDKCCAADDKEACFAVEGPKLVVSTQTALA

Target: bovine serum albumin (BSA) (Bos taurus, UniProt P02769)
Assay: Titration of dye solution with BSA, fluorescence and UV absorption
Format: binding
Conditions: dye solution 1 μM, PBS pH 7.4
Description: The solutions of compounds Ha to IIc in a concentration of 1×10^−6M (10 mM PBS buffer (pH=7.4) was used as solvent) was prepared, and 3 ml of the each dye solution was added into a cuvette, respectively. Then, an aqueous bovine serum albumin (BSA) stock solution with the concentration of […] (750 μM) was added dropwise into each of the dye solution. The fluorescence intensity of the dye was measured each 5 minutes after addition of BSA for fluorescence becoming stable, on UV-visible spectrophotometer (Mode: Hp8453) and fluorescence spectrophotometer (Mode: FP-6500).
Especially for dyes IIb and IIc, the fluorescence intensity thereof was increased linearly with addition of BSA to arrive at more than 30 folds.

Row | Compound | increase of fluorescence intensity with addition of BSA
1 | CCN1/C(=C/C=C/C(=C/C2=[N+](CC)c3ccccc3C2(C)C)NCCO)C(C)(C)c2ccccc21 [Dye IIb] | more than 30 folds
2 | CCN1/C(=C/C=C/C(=C/C2=[N+](CC)c3ccccc3C2(C)C)N(CCO)CCO)C(C)(C)c2ccccc21 [Dye IIc] | more than 30 folds
